These are yes or no findings as the source states them, for the method shown. Where a sequence is shown, tags or fusion partners need not be part of it.
What was measured:
Test in all cases: condition: detection range of FCCS: apparent KD up to ~1 μM; fluorescence cross-correlation spectroscopy (FCCS); living yeast cells, observation volume in the cytoplasm; one protein tagged with (3)myeGFP/eGFP and the other with 3mCherry in the same strain; apparent (effective) KD; interactions up to ~1 μM detectable
[1] = target: T1, End3 (S. cerevisiae) (UniProt P39013)
T1 sequence: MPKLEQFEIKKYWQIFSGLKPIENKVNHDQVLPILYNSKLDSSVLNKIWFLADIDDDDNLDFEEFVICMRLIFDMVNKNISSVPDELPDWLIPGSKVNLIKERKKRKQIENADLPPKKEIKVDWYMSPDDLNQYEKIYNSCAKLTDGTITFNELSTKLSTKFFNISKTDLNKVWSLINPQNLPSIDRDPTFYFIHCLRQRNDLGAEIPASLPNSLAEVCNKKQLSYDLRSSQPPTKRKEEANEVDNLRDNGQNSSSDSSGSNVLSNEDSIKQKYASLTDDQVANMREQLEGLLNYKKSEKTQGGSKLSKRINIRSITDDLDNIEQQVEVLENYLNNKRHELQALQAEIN

[2] = target: T2, Yap1802 (S. cerevisiae) (UniProt P53309)
T2 sequence: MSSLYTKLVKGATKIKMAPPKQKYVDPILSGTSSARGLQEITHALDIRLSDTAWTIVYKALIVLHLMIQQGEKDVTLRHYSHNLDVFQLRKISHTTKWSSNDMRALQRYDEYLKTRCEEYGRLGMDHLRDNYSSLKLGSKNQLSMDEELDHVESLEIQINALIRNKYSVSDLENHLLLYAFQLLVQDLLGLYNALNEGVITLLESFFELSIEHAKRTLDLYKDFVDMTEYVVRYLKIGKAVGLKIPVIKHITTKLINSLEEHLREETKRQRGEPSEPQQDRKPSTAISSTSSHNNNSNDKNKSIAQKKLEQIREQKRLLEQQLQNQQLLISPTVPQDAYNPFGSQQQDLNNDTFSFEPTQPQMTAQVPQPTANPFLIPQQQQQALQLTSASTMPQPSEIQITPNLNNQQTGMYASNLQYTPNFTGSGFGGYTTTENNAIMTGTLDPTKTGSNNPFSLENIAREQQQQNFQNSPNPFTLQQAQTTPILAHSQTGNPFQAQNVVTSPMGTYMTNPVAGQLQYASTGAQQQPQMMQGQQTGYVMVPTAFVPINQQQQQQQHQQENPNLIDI

[3] = target: T3, Ent1 (S. cerevisiae) (UniProt Q12518)
T3 sequence: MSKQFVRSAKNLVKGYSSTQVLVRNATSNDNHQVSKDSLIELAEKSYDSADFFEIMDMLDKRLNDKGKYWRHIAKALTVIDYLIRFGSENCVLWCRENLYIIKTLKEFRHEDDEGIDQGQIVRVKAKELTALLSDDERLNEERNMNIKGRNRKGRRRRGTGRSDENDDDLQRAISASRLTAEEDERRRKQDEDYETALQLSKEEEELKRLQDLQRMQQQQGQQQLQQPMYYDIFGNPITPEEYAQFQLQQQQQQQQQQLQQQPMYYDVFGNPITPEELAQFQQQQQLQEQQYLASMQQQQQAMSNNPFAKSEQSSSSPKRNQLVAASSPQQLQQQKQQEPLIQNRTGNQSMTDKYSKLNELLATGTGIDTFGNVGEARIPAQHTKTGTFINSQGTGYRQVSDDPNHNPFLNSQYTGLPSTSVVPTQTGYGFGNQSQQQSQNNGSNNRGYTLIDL

Measured: binding

B1: Ede1 (Ede1-3myeGFP / Ede1-3mCherry) (natural protein, S. cerevisiae, UniProt P34216 1-1381, looked up)
chain: MASITFRTPLSSQEQAFYNQKFHQLDTEDLGVVTGEAVRPLFASSGLPGQLLSQVWATVDIDNKGFLNLNEFSAALRMIAQLQNAPNQPISAALYESTPTQLASFSINQNPAPMQSGSATGNTNNTDIPALSSNDIAKFSQLFDRTAKGAQTVAGDKAKDIFLKARLPNQTLGEIWALCDRDASGVLDKSEFIMAMYLIQLCMSHHPSMNTPPAVLPTQLWDSIRLEPVVVNQPNRTTPLSANSTGVSSLTRHSTISRLSTGAFSNAASDWSLSFEKKQQFDAIFDSLDKQHAGSLSSAVLVPFFLSSRLNQETLATIWDLADIHNNAEFTKLEFAIAMFLIQKKNAGVELPDVIPNELLQSPALGLYPPNPLPQQQSAPQIAIPSRASKPSLQDMPHQVSAPAVNTQPTVPQVLPQNSNNGSLNDLLALNPSFSSPSPTKAQTVVQNNTNNSFSYDNNNGQATLQQQQPQQPPPLTHSSSGLKKFTPTSNFGQSIIKEEPEEQEQLRESSDTFSAQPPPVPKHASSPVKRTASTTLPQVPNFSVFSMPAGAATSAATGAAVGAAVGAAALGASAFSRSSNNAFKNQDLFADGEASAQLSNATTEMANLSNQVNSLSKQASITNDKKSRATQELKRVTEMKNSIQIKLNNLRSTHDQNVKQTEQLEAQVLQVNKENETLAQQLAVSEANYHAAESKLNELTTDLQESQTKNAELKEQITNLNSMTASLQSQLNEKQQQVKQERSMVDVNSKQLELNQVTVANLQKEIDGLGEKISVYLTKQKELNDYQKTVEEQHAQLQAKYQDLSNKDTDLTDREKQLEERNRQIEEQENLYHQHVSKLQEMFDDLSQRKASFEKADQELKERNIEYANNVRELSERQMNLAMGQLPEDAKDIIAKSASNTDTTTKEATSRGNVHEDTVSKFVETTVENSNLNVNRVKDDEEKTERTESDVFDRDVPTLGSQSDSENANTNNGTQSGNETANPNLTETLSDRFDGDLNEYGIPRSQSLTSSVANNAPQSVRDDVELPETLEERDTINNTANRDNTGNLSHIPGEWEATPATASTDVLSNETTEVIEDGSTTKRANSNEDGESVSSIQESPKISAQPKAKTINEEFPPIQELHIDESDSSSSDDDEFEDTREIPSATVKTLQTPYNAQPTSSLEIHTEQVIKYPAPGTSPSHNEGNSKKASTNSILPVKDEFDDEFAGLEQAAVEEDNGADSESEFENVANAGSMEQFETIDHKDLDDELQMNAFTGTLTSSSNPTIPKPQVQQQSTSDPAQVSNDEWDEIFAGFGNSKAEPTKVATPSIPQQPIPLKNDPIVDASLSKGPIVNRGVATTPKSLAVEELSGMGFTEEEAHNALEKCNWDLEAATNFLLDSA
notes: Ede1, S. cerevisiae, homolog of mammalian Eps15; expressed from its own locus; also called wild-type Ede1; full-length Ede1; source: S. cerevisiae, chromosomally tagged at the endogenous locus, in living cells; not shown: 3myeGFP, C-terminal, kept; 3mCherry, C-terminal, kept
no binding: [1] | [2] | [3]
